According to paper PMC8274477:
Results are given in words; binding and its absence hold for the method and conditions named. Some entries that bind do so weakly or less than the wild type.

Chains of the proteins cited; added tags and fusions are not shown.
UniProt O43704: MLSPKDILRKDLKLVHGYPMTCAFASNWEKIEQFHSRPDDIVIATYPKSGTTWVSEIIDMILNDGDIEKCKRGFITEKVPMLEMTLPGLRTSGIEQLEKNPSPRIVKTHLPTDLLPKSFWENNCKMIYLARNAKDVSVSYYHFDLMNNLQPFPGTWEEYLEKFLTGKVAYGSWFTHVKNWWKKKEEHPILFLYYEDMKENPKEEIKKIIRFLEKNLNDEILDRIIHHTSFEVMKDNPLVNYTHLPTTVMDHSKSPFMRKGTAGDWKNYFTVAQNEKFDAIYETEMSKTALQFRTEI

What was measured:
Experiment in all cases: peptide or protein array; HuProt human proteome microarray; 5 ug/5 ml biotin-labelled LUBAC or OTULIN in solution, 1 h at room temperature; Cy5-streptavidin, scanned at 635 nm; BSA as negative control; hits: Z-score >= 3 and I_(Mean_Ratio) >= 1.4; both purified
[1] = target: T1, DNM2 (human) (UniProt P50570)
T1 sequence: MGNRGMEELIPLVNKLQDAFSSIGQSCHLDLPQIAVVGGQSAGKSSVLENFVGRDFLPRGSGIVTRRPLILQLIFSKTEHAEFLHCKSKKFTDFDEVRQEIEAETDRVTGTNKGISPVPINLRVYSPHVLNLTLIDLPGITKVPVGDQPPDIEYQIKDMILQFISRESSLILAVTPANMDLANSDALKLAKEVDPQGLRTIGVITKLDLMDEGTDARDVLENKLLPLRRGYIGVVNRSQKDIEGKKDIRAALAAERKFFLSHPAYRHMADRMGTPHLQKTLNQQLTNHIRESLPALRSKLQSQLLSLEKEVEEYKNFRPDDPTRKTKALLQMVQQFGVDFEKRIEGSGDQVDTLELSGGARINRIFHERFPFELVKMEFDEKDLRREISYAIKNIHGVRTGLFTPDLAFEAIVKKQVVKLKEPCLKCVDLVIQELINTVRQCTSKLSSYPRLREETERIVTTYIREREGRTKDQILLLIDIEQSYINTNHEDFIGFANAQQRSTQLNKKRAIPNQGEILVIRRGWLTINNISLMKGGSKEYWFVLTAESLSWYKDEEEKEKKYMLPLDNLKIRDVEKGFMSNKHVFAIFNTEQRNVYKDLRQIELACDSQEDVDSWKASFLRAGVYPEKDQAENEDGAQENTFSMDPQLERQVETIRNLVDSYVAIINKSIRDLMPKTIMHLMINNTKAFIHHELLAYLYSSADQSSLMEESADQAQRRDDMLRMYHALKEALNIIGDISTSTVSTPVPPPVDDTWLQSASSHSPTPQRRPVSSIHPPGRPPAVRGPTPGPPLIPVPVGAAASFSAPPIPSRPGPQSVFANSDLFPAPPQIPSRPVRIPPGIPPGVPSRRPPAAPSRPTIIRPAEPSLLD

[2] = target: ARPC1B (human) (UniProt O15143)
[3] = target: SULT1B1 (human) (UniProt O43704)
[4] = target: T2, SCEL (human) (UniProt O95171)
T2 sequence: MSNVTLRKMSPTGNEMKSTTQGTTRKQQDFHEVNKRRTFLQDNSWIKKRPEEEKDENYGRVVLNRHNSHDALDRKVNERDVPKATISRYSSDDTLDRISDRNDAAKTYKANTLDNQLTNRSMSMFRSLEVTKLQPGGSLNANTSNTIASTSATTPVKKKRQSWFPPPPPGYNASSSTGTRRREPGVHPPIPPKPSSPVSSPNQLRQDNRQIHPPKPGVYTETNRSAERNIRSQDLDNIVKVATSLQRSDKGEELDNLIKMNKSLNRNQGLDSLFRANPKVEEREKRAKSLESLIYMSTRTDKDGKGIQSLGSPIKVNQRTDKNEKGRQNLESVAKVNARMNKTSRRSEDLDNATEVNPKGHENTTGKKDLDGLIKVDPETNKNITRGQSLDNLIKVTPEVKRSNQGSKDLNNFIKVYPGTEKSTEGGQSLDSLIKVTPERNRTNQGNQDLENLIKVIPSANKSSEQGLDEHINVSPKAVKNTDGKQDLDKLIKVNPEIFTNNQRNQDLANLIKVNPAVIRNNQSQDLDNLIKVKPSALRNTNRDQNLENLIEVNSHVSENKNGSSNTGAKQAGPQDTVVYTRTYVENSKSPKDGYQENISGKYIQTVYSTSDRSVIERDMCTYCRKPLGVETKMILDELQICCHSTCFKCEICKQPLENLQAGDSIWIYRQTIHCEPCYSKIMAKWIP

[5] = target: T3, ALDH4A1 (human) (UniProt P30038)
T3 sequence: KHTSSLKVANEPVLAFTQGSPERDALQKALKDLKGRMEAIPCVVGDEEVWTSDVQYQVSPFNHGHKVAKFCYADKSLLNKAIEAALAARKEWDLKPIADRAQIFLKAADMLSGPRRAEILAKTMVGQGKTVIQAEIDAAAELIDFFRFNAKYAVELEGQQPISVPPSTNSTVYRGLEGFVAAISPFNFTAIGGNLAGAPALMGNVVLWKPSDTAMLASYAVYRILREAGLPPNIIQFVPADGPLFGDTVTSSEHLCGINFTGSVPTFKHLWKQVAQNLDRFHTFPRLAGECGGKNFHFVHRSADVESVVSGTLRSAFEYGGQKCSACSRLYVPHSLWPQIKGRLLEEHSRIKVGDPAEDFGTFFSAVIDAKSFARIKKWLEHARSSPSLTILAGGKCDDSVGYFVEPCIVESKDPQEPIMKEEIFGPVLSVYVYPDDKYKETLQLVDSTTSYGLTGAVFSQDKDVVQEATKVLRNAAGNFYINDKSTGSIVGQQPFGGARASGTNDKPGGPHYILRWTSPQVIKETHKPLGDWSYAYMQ

Measured: binding

linear ubiquitin chain assembly complex (LUBAC), purified as HIS-tagged HOIP with the subunit HOIL-1, biotin-labelled (from UniProt Q96EP0 1-1072; Q9BYM8 1-510)
binds: all assays above
